Experimental findings from publication PMC6611441 are described below.

Protein sequences, listed by entry. Tags and fused reporters are not part of them. Lines headed by an entry give the natural chain unless they say otherwise; changes in a name come on top. Chains listed by the source or under a name are the forms on record and can include a tag or linker.
HTRA1 A173P, myc-His6 tagged (Q92743, form named): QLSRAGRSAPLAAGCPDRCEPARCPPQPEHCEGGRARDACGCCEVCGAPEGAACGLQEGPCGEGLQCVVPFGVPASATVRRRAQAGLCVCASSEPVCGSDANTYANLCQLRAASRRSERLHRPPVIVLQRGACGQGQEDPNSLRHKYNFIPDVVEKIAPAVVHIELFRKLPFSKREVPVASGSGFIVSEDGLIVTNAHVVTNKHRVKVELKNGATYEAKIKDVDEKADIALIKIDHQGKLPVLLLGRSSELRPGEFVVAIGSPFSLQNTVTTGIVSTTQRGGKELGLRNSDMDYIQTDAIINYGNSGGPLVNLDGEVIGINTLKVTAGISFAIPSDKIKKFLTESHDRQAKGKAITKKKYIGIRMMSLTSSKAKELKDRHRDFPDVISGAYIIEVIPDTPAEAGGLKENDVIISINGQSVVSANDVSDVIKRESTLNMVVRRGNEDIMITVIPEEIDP
HTRA1 A173T, myc-His6 tagged (Q92743, form named): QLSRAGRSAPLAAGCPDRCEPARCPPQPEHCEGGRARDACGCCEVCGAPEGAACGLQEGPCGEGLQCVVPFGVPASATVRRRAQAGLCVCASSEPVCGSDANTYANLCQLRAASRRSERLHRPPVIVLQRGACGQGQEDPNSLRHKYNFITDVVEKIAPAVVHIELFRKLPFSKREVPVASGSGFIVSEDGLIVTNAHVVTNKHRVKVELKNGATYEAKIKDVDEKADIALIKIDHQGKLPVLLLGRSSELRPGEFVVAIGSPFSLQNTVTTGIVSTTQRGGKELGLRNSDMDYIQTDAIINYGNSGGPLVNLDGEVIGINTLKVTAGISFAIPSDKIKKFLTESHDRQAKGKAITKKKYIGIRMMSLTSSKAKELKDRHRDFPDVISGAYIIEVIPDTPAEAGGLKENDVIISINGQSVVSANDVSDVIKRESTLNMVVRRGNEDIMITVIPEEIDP
HTRA1 G295R, myc-His6 tagged (Q92743, form named): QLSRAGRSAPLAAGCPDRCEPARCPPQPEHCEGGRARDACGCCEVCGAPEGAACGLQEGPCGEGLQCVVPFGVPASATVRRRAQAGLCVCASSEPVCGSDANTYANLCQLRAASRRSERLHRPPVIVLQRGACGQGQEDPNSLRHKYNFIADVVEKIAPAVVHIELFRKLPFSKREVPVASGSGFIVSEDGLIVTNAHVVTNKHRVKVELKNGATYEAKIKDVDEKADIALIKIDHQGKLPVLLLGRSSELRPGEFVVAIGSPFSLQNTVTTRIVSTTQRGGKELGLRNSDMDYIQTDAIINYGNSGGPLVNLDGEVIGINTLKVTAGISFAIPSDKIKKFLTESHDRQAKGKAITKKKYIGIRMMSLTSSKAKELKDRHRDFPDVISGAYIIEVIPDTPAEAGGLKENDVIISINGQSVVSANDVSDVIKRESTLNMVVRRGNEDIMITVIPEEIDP
HTRA1 R166C, myc-His6 tagged (Q92743, form named): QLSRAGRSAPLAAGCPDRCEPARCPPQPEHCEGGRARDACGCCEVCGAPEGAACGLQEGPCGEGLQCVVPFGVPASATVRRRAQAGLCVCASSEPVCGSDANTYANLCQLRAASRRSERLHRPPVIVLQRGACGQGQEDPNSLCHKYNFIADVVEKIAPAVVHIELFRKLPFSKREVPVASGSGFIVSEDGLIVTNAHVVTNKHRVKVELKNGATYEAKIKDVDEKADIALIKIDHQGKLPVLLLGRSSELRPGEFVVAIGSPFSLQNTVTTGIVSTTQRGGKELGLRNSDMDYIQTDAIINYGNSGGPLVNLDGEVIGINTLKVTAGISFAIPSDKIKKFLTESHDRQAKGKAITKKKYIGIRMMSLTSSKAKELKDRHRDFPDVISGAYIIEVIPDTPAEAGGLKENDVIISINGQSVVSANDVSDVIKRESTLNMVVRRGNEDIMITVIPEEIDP
HTRA1 R166L, myc-His6 tagged (Q92743, form named): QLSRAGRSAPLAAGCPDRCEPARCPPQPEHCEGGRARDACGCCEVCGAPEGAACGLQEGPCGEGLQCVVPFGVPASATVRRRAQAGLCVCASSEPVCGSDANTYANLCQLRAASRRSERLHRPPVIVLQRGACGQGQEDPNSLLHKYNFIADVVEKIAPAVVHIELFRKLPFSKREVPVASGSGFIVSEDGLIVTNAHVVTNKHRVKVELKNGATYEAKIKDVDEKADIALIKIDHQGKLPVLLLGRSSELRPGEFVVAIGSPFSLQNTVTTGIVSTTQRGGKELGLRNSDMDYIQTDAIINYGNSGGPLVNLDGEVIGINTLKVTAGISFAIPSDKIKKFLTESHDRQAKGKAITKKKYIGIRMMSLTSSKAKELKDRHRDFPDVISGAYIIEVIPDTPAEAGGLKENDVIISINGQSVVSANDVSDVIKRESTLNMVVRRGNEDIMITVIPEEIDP
HTRA1 Y169E/F171E, myc-His6 tagged (Q92743, form named): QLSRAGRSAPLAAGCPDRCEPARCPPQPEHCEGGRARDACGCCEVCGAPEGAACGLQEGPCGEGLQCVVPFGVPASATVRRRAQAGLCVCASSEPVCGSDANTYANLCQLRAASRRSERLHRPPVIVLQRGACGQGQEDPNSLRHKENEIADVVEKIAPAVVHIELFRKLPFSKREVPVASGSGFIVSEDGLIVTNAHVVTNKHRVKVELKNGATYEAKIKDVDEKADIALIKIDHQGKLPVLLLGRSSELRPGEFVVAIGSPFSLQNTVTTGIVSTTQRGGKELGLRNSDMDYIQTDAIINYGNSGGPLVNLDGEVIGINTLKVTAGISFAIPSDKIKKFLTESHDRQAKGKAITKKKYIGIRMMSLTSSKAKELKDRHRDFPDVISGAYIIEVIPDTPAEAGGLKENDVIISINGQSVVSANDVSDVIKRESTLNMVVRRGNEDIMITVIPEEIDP

No constants are given. Whether binding was seen depends on the method and setting.

Holding throughout (assay): SEC; Superdex 200 10/300 GL, 100 mM Tris-HCl pH 8.0, 150 mM NaCl; samples pre-incubated at 37°C for 30 min, injected at 500 ng/μl; fractions read by SDS-PAGE (Coomassie); self-association, trimer against monomer; both purified
In test [1] the target is HTRA1 A173P, myc-His6 tagged (UniProt Q92743).
The target of test [2] is HTRA1 A173T, myc-His6 tagged (UniProt Q92743).
Test [3] concerns the target HTRA1 G295R, myc-His6 tagged (UniProt Q92743).
Test [4] concerns the target HTRA1 R166C, myc-His6 tagged (UniProt Q92743).
The target in test [5] is HTRA1 R166L, myc-His6 tagged (UniProt Q92743).
In test [6] the target is HTRA1 Y169E/F171E, myc-His6 tagged (UniProt Q92743).

Take “HTRA1 A173P, myc-His6 tagged (from UniProt Q92743 23-480) (enzyme)”: the binding result in test [1] is given as “no binding (tested: 500 ng/μl)”.

For the substance “HTRA1 A173T, myc-His6 tagged (from UniProt Q92743 23-480) (enzyme)”, the binding result in test [2] is on record as “no binding (tested: 500 ng/μl)”.

For the substance “HTRA1 G295R, myc-His6 tagged (from UniProt Q92743 23-480) (enzyme)”, the binding entry in test [3] is recorded as “no binding (tested: 500 ng/μl)”.

With “HTRA1 R166C, myc-His6 tagged (from UniProt Q92743 23-480) (enzyme)”, the binding entry in test [4] was “no binding (tested: 500 ng/μl)”.

Take “HTRA1 R166L, myc-His6 tagged (from UniProt Q92743 23-480) (enzyme)”: in test [5], the binding entry was “no binding (tested: 500 ng/μl)”.

As to “HTRA1 Y169E/F171E, myc-His6 tagged (from UniProt Q92743 23-480) (enzyme)”, the binding entry in test [6] is recorded as “no binding (tested: 500 ng/μl)”.
